PubChem BioAssay AID248 (DTP/NCI, 2004)
The list shows only some results of the screen, not a fair sample: it covers a few groups of compounds. Not every dose and run of a compound is shown. T/C is the treated group as % of the vehicle group. Some doses have a count of surviving animals in place of a T/C: the source holds a T/C of zero for them, seemingly a mark for toxic or unscored doses. Some doses without a T/C left all or most animals alive at the check, yet need not have been tolerated: survival well below the control is almost never listed, so the zero probably covers shortened survival too. Survivors were counted at the toxicity check, usually on the fifth day, unless a day is given; later deaths do not show. Schedules are NCI's codes, read here as Q, the interval in days (D) or hours (H), X, the number of doses. Some entries hold several experiments; the values are given in rising order. Some schedule codes hold Z or #, which are not explained here. For survival time, the PubChem record calls one and a half times the control and up active, and a quarter to a half above the control has no call in these data; cut-offs in other NCI protocols can differ. Brackets with × give the number of equal values in this list. Some T/C values are marked as having no survivor count here; that says nothing about deaths at the dose.

Tested on: L1210 leukemia ip in BDF1 mice, survival T/C
Assay: NCI In Vivo Anticancer Drug Screen. Data for tumor model L1210 Leukemia (intraperitoneal) in B6D2F1 (BDF1) mice
Conditions: T/C endpoint: mean survival time, higher T/C = longer survival
[1] = dose: 3.13 mg/kg/injection, schedule: Q01DX009 (ip), vehicle: saline with Tween-80
[2] = dose: 6.25 mg/kg/injection, schedule: Q01DX009 (ip), vehicle: saline with Tween-80
[3] = dose: 12.5 mg/kg/injection, schedule: Q01DX009 (ip), vehicle: saline with Tween-80
[4] = dose: 25.0 mg/kg/injection, schedule: Q01DX009 (ip), vehicle: saline with Tween-80
[5] = dose: 50.0 mg/kg/injection, schedule: Q01DX009 (ip), vehicle: saline with Tween-80
[6] = dose: 100.0 mg/kg/injection, schedule: Q01DX009 (ip), vehicle: saline with Tween-80
[7] = dose: 200.0 mg/kg/injection, schedule: Q01DX009 (ip), vehicle: saline with Tween-80
[8] = dose: 50.0 mg/kg/injection, schedule: Q04DX003 (ip), vehicle: saline
[9] = dose: 100.0 mg/kg/injection, schedule: Q04DX003 (ip), vehicle: saline
[10] = dose: 50.0 mg/kg/injection, schedule: Q01DX001 (ip), vehicle: saline
[11] = dose: 100.0 mg/kg/injection, schedule: Q01DX001 (ip), vehicle: saline
[12] = dose: 200.0 mg/kg/injection, schedule: Q01DX001 (ip), vehicle: saline
[13] = dose: 500.0 mg/kg/injection, schedule: Q01DX Z (ip), vehicle: saline

## CC1CC[P+](c2ccccc2)(c2ccccc2)c2c1ccc1ccccc21.F[P-](F)(F)(F)(F)F (configuration not stated)
[1]
  T/C: 103 % of control
[2]
  T/C: 103 % of control
[3]
  T/C: 106 % of control (2×)
[4]
  T/C: 92 % of control
[5]
  survivor count: 0 of 3 and 3 of 3
[6]
  survivor count: 0 of 3
[7]
  survivor count: 0 of 3

## [O-]/[N+](=C/c1ccc(N(CCCl)CCCl)cc1)CCO
dose: 100.0 mg/kg/injection, schedule: Q01DX001 (ip), vehicle: carboxymethylcellulose (CMC)
  T/C: 101 % of control
dose: 200.0 mg/kg/injection, schedule: Q01DX001 (ip), vehicle: carboxymethylcellulose (CMC)
  T/C: 106 % of control
dose: 400.0 mg/kg/injection, schedule: Q01DX001 (ip), vehicle: carboxymethylcellulose (CMC)
  T/C: 108 % of control

## CC1(Cc2ccccc2)C[N+]12CCCCC2 (configuration not stated)
dose: 12.0 mg/kg/injection, schedule: Q01DX009 (ip), vehicle: saline
  T/C: 92 % of control
dose: 12.5 mg/kg/injection, schedule: Q04DX003 (ip), vehicle: saline
  T/C: 94 % of control
dose: 25.0 mg/kg/injection, schedule: Q01DX009 (ip), vehicle: saline
  T/C: 103 % of control
dose: 25.0 mg/kg/injection, schedule: Q04DX003 (ip), vehicle: saline
  T/C: 103 % of control
dose: 50.0 mg/kg/injection, schedule: Q01DX009 (ip), vehicle: saline
  T/C: 116 % of control
[8]
  T/C: 105 % of control
[9]
  survivor count: 0 of 6
dose: 200.0 mg/kg/injection, schedule: Q04DX003 (ip), vehicle: saline
  survivor count: 0 of 6
dose: 400.0 mg/kg/injection, schedule: Q04DX003 (ip), vehicle: saline
  survivor count: 0 of 6

## O=[N+]([O-])c1ccc(N/N=C/C=C\C=N\Nc2ccc([N+](=O)[O-])cc2[N+](=O)[O-])c([N+](=O)[O-])c1
dose: 50.0 mg/kg/injection, schedule: Q04DX002 (ip), vehicle: Klucel (hydroxypropylcellulose) (HPC)
  T/C: 86 % of control
dose: 100.0 mg/kg/injection, schedule: Q04DX002 (ip), vehicle: Klucel (hydroxypropylcellulose) (HPC)
  T/C: 108 % of control
dose: 200.0 mg/kg/injection, schedule: Q04DX002 (ip), vehicle: Klucel (hydroxypropylcellulose) (HPC)
  T/C: 89 % of control

## C(=C/[AsH](c1ccccc1)c1ccccc1)/[AsH](c1ccccc1)c1ccccc1.C(=C/[AsH](c1ccccc1)c1ccccc1)/[AsH](c1ccccc1)c1ccccc1.[Cl][Rh][Cl]
dose: 25.0 mg/kg/injection, schedule: Q01DX001 (ip), vehicle: saline
  T/C: 98 % of control
[10]
  T/C: 107 % of control
[11]
  T/C: 104 % of control
[12]
  T/C: 113 % of control

## CCP(=O)(Sc1ccccc1)Sc1ccccc1
dose: 5.0 mg/kg/injection, schedule: Q01DX001 (ip), vehicle: saline
  T/C: 100 % of control [survivor count not shown]
dose: 10.0 mg/kg/injection, schedule: Q01DX001 (ip), vehicle: saline
  T/C: 103 % of control [survivor count not shown]
dose: 20.0 mg/kg/injection, schedule: Q01DX001 (ip), vehicle: saline
  T/C: 105 % of control [survivor count not shown]
dose: 40.0 mg/kg/injection, schedule: Q01DX001 (ip), vehicle: saline
  T/C: 102 % of control [survivor count not shown]

## OOC1(OOC2(OO)CCCCC2)CCCCC1
[5]
  T/C: 96 % of control [survivor count not shown]

## CC(C)(C)C(=O)SCCCl
dose: 10.0 mg/kg/injection, schedule: Q01DX010 (ip), vehicle: saline
  T/C: 90 % of control
dose: 30.0 mg/kg/injection, schedule: Q01DX010 (ip), vehicle: saline
  T/C: 96 % of control
dose: 100.0 mg/kg/injection, schedule: Q01DX010 (ip), vehicle: saline
  T/C: 86 % of control
dose: 300.0 mg/kg/injection, schedule: Q01DX010 (ip), vehicle: saline
  T/C: 91 % of control
dose: 300.0 mg/kg/injection, schedule: Q01DX Z (ip), vehicle: saline
  T/C: 87 % of control
[13]
  survivor count: 3 of 6

## CC1CC[P+](C)(c2ccccc2)c2ccccc21.F[P-](F)(F)(F)(F)F (configuration not stated)
[1]
  T/C: 107 % of control
[2]
  survivor count: 3 of 3
[3]
  survivor count: 0 of 3 and 1 of 3
[4]
  survivor count: 0 of 3
[5]
  survivor count: 0 of 3
[6]
  survivor count: 0 of 3
[7]
  survivor count: 0 of 3

## CCOP(=O)(O)N(CCCl)CCCl.NC1CCCCC1
dose: 62.5 mg/kg/injection, schedule: Q01DX010 (ip), vehicle: saline
  T/C: 103 % of control
dose: 125.0 mg/kg/injection, schedule: Q01DX010 (ip), vehicle: saline
  T/C: 111 % of control
dose: 250.0 mg/kg/injection, schedule: Q01DX010 (ip), vehicle: saline
  T/C: 117 % of control
dose: 250.0 mg/kg/injection, schedule: Q01DX Z (ip), vehicle: saline
  T/C: 137 % of control
[13]
  T/C: 137 % of control
dose: 750.0 mg/kg/injection, schedule: Q01DX Z (ip), vehicle: saline
  survivor count: 3 of 6

## O=[N+]([O-])c1cc([N+](=O)[O-])c(NCCO)c([N+](=O)[O-])c1
dose: 100.0 mg/kg/injection, schedule: Q04DX003 (ip), vehicle: acetone
  T/C: 99 % of control [survivor count not shown]
dose: 200.0 mg/kg/injection, schedule: Q04DX003 (ip), vehicle: acetone
  T/C: 99 % of control [survivor count not shown]
dose: 400.0 mg/kg/injection, schedule: Q04DX003 (ip), vehicle: acetone
  T/C: 86 % of control [survivor count not shown]

## ClCC[N+]1(CCCl)CCCO1
dose: 0.44 mg/kg/injection, schedule: Q01DX Z (ip), vehicle: methylcellulose (MC)
  T/C: 103 % of control
dose: 0.98 mg/kg/injection, schedule: Q01DX Z (ip), vehicle: methylcellulose (MC)
  T/C: 109 % of control
dose: 1.4 mg/kg/injection, schedule: Q01DX Z (ip), vehicle: methylcellulose (MC)
  T/C: 106 % of control
dose: 2.2 mg/kg/injection, schedule: Q01DX Z (ip), vehicle: methylcellulose (MC)
  T/C: 117 % of control
dose: 3.3 mg/kg/injection, schedule: Q01DX Z (ip), vehicle: methylcellulose (MC)
  T/C: 108 % of control
dose: 5.0 mg/kg/injection, schedule: Q01DX Z (ip), vehicle: methylcellulose (MC)
  T/C: 99 and 117 % of control
dose: 5.32 mg/kg/injection, schedule: Q01DX Z (ip), vehicle: saline
  T/C: 123 % of control
dose: 7.5 mg/kg/injection, schedule: Q01DX Z (ip), vehicle: methylcellulose (MC)
  T/C: 99 % of control
dose: 8.0 mg/kg/injection, schedule: Q01DX Z (ip), vehicle: saline
  T/C: 120 % of control
dose: 11.0 mg/kg/injection, schedule: Q01DX Z (ip), vehicle: methylcellulose (MC)
  T/C: 99 % of control
dose: 12.0 mg/kg/injection, schedule: Q01DX Z (ip), vehicle: saline
  T/C: 106 % of control
dose: 12.5 mg/kg/injection, schedule: Q01DX001 (ip), vehicle: saline
  T/C: 114 % of control
dose: 16.5 mg/kg/injection, schedule: Q01DX Z (ip), vehicle: methylcellulose (MC)
  T/C: 105 % of control
dose: 18.0 mg/kg/injection, schedule: Q01DX Z (ip), vehicle: saline
  T/C: 87 % of control
dose: 25.0 mg/kg/injection, schedule: Q01DX001 (ip), vehicle: saline, evaluated on day 30
  T/C: 107 % of control
dose: 25.0 mg/kg/injection, schedule: Q01DX001 (ip), vehicle: saline, run until all animals had died
  T/C: 101 % of control
[10]
  T/C: 118 % of control
[8]
  T/C: 130 % of control
[11]
  T/C: 126 % of control
[9]
  T/C: 93 % of control
[12]
  T/C: 105 % of control

## COCC(NCCCl)c1ccccc1 (configuration not stated)
dose: 100.0 mg/kg/injection, schedule: Q04DX002 (ip), vehicle: saline
  T/C: 109 % of control
dose: 200.0 mg/kg/injection, schedule: Q04DX002 (ip), vehicle: saline
  T/C: 105 % of control
dose: 400.0 mg/kg/injection, schedule: Q04DX002 (ip), vehicle: saline
  T/C: 109 % of control
